Source: article PMC4816682
No constants are given. Whether binding was seen depends on the method and setting. Some binding calls cover weakened binding; strength is not graded here.

Protein sequences, listed by entry. Tags and fused reporters are not part of them.
UniProt P22317: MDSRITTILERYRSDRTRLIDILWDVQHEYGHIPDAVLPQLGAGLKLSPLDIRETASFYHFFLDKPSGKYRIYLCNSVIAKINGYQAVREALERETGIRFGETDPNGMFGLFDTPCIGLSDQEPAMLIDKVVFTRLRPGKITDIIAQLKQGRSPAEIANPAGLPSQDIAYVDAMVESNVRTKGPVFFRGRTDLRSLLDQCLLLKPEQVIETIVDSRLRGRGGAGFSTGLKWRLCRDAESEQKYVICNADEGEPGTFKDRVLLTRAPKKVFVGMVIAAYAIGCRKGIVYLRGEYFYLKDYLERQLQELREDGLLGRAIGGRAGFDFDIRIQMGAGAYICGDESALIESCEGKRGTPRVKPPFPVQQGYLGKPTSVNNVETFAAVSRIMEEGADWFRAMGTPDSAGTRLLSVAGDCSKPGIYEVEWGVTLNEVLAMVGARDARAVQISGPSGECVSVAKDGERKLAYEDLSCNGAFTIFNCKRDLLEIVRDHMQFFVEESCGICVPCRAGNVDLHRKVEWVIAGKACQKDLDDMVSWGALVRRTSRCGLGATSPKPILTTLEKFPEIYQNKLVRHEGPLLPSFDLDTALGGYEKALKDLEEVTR
UniProt P22320: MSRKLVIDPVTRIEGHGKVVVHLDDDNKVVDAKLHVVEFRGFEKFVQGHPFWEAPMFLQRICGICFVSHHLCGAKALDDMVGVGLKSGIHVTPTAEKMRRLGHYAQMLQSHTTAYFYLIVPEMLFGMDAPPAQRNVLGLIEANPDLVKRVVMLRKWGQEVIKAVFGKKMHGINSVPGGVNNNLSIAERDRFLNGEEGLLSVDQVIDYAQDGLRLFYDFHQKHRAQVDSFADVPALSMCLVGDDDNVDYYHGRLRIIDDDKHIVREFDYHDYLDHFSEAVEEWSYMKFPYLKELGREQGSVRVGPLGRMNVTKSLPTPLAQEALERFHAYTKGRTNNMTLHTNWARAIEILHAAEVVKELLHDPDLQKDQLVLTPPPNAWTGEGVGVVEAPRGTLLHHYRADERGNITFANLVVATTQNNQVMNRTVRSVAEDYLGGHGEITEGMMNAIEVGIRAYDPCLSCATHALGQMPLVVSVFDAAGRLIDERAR
UniProt P22318: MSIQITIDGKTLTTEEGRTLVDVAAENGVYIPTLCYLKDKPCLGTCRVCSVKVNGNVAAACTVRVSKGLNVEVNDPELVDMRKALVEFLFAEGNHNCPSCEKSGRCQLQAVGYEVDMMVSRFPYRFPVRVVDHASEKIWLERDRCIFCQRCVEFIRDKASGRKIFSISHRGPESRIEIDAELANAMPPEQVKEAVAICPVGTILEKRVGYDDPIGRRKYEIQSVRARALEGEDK
UniProt P22319: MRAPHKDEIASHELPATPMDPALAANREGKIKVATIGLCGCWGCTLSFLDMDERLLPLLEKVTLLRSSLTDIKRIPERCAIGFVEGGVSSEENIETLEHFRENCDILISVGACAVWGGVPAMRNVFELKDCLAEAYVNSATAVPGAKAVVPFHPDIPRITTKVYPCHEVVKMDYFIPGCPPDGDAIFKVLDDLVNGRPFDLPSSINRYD

target: HoxF NAD-reducing hydrogenase diaphorase moiety large subunit [R. eutropha H16] (R. eutropha H16) (UniProt P22317); assay: SEC; endogenous soluble hydrogenase followed by its activity through ammonium sulphate fractionation, Q Sepharose FF, RESOURCE Q and Superdex 200 10/300 GL (50 mM KPi with 150 mM NaCl, 4 °C, aerobic); the five bands of the SH fraction on SDS-PAGE identified by mass spectrometry; no bait

binding | Substance
binds | HoxH NAD-reducing hydrogenase moiety large subunit [R. eutropha H16] (from UniProt P22320 1-488)
binds | HoxU NAD-reducing hydrogenase diaphorase moiety small subunit [R. eutropha H16] (from UniProt P22318 1-234)
binds | HoxY NAD-reducing hydrogenase moiety small subunit [R. eutropha H16] (from UniProt P22319 1-209)
